Measured data: PubChem BioAssay AID602196 (INSERM, 2012)

Purpose: 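Knock-downs that protect lung cancer cells from cisplatin or sensitise them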
Cell system: human A549 lung cancer cells
Reagents: siRNA pair against human genes
Timing: 48 h transfection before cisplatin; time from cisplatin to read-out not stated
Challenge: cisplatin at a dose killing half of control-siRNA cells; exact dose and duration not given
Detection: 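Shift in cisplatin death relative to control siRNA, from -50 (all cells die) to +50 (no cells die); siRNAs harmful on their own scored 0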
Reading the numbers: two-siRNA summed score (-2 to +2): higher = both siRNAs protect from cisplatin killing; -2 means both sensitise; mean protection from cisplatin (shift in death) and protection from cisplatin (shift in death), siRNA C and protection from cisplatin (shift in death), siRNA D: higher = protection from cisplatin killing
Rule for the call: 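Each siRNA scores 0 if harmful alone by LDH or WST-1, otherwise +1 if it reduces and -1 if it increases cisplatin killing; a gene is active when both siRNAs agree (sum +2 or -2)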
Calls: active = both siRNAs shift cisplatin killing the same way; inactive = no consistent shift, or siRNA harmful alone
Shown is an unselected part of about 23,000 reagents. 455 of them (2%) were called active. 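Active includes both protection and sensitisation; some change values fall well beyond the stated -50 to +50 range.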 A number with no mark means an inactive call. Reagents against one gene are numbered here. No sequences are given here. Not given: the amount of reagent.

| gene knocked down | reagent no. | two-siRNA summed score (-2 to +2) | mean protection from cisplatin (shift in death) (%) | protection from cisplatin (shift in death), siRNA C (%) | protection from cisplatin (shift in death), siRNA D (%) |
| --- | --- | --- | --- | --- | --- |
| CDC5L (cell division cycle 5 like) | 1 | 0 | -5.1 | -4.7 | -5.5 |
| KLF5 (KLF transcription factor 5) | 1 | 0 | 2.7 | -12.5 | 17.9 |
| TMEM31 (transmembrane protein 31) | 1 | 0 | -2.8 | 7.1 | -12.7 |
| CD81 (CD81 molecule) | 1 | -1 | -6.3 | -21.4 | 8.8 |
| FGF9 (fibroblast growth factor 9) | 1 | 0 | 9.5 | 12.8 | 6.1 |
| GRM2 (glutamate metabotropic receptor 2) | 1 | 0 | 1.9 | -4.5 | 8.3 |
| FOXK2 (forkhead box K2) | 1 | -1 | -12.2 | -1.7 | -22.7 |
| GRPR (gastrin releasing peptide receptor) | 1 | -1 | -4.1 | 6 | -14.2 |
| TRIB1 (tribbles pseudokinase 1) | 1 | 1 | 4.5 | 0.6 | 8.4 |
| TMEM18 (transmembrane protein 18) | 1 | 1 | 9.3 | 5.2 | 13.4 |
| LOC136157 | 1 | 0 | 6.9 | 16.4 | -2.7 |
| ZNF626 (zinc finger protein 626) | 1 | 0 | -8.8 | -8.8 | -8.8 |
| ZRANB3 (zinc finger RANBP2-type containing 3) | 1 | 1 | 31.3 | 41.6 | 21 |
| LOC392584 | 1 | 0 | 7 | 9.6 | 4.4 |
| OIP5 (Opa interacting protein 5) | 1 | 0 | 12 | 16.9 | 7.2 |
| LINC01567 (long independently transcribed non-coding RNA 1567) | 1 | 0 | 1.4 | -3.5 | 6.4 |
| MYLK (myosin light chain kinase) | 1 | 0 | 7.2 | 6.9 | 7.6 |
| PTPN9 (protein tyrosine phosphatase non-receptor type 9) | 1 | 1 | 9.6 | 18.4 | 0.9 |
| TECTA (tectorin alpha) | 1 | -1 | -8.8 | 0 | -17.6 |
| LOC339875 | 1 | 1 | 14.4 | 16.8 | 12 |
| COX6C (cytochrome c oxidase subunit 6C) | 1 | 0 | 8.7 | -11.8 | 29.1 |
| SEM1 (SEM1 26S proteasome subunit) | 1 | 0 | 8.4 | 1.7 | 15.1 |
| SEM1 (SEM1 26S proteasome subunit) | 2 | 0 | 14.5 | 24 | 5 |
| DCAF12 (DDB1 and CUL4 associated factor 12) | 1 | 0 | -6.3 | -11.7 | -0.9 |
| LOC401442 | 1 | 0 | 1.8 | 9.7 | -6.2 |
| FBP1 (fructose-bisphosphatase 1) | 1 | -2 (active) | -17.6 | -12.8 | -22.5 |
| LOC389656 | 1 | 0 | 6.5 | 5.9 | 7.1 |
| C2CD4C (C2 calcium dependent domain containing 4C) | 1 | 1 | 6.7 | 13.5 | -0.2 |
| CCL5 (C-C motif chemokine ligand 5) | 1 | -1 | -8.4 | 5.7 | -22.5 |

Not a retest: 6 of the entries above.
| gene knocked down | reagent no. | two-siRNA summed score (-2 to +2) | mean protection from cisplatin (shift in death) (%) | protection from cisplatin (shift in death), siRNA C (%) | protection from cisplatin (shift in death), siRNA D (%) |
| --- | --- | --- | --- | --- | --- |
| TMEM18 (transmembrane protein 18) | 1 | 1 | 9.3 | 5.2 | 13.4 |
| LOC136157 | 1 | 0 | 6.9 | 16.4 | -2.7 |
| ZNF626 (zinc finger protein 626) | 1 | 0 | -8.8 | -8.8 | -8.8 |
| ZRANB3 (zinc finger RANBP2-type containing 3) | 1 | 1 | 31.3 | 41.6 | 21 |
| LOC392584 | 1 | 0 | 7 | 9.6 | 4.4 |
| OIP5 (Opa interacting protein 5) | 1 | 0 | 12 | 16.9 | 7.2 |

Continued:
| gene knocked down | reagent no. | two-siRNA summed score (-2 to +2) | mean protection from cisplatin (shift in death) (%) | protection from cisplatin (shift in death), siRNA C (%) | protection from cisplatin (shift in death), siRNA D (%) |
| --- | --- | --- | --- | --- | --- |
| AQP12A (aquaporin 12A) | 1 | 0 | 7.1 | 18.9 | -4.8 |
| LOC440047 (retired record) | 1 | 1 | 4.5 | -7.6 | 16.6 |
| SLC25A33 | 1 | 0 | 12.3 | 9.7 | 14.8 |
| TRIM33 (tripartite motif containing 33) | 1 | -1 | -20.8 | -1 | -40.7 |
| GOLGA6B (golgin A6 family member B) | 1 | 0 | 11.1 | 15.4 | 6.9 |
| CADM1 (cell adhesion molecule 1) | 1 | 1 | 15.2 | 7 | 23.4 |
| STK3 (serine/threonine kinase 3) | 1 | -1 | -1.5 | -21.4 | 18.3 |
| UBE3A (ubiquitin protein ligase E3A) | 1 | 0 | 9 | 9.7 | 8.3 |
| LOC339047 | 1 | 0 | 9.4 | 14.5 | 4.4 |
| LYSMD4 (LysM domain containing 4) | 1 | 0 | 5.2 | 4.2 | 6.1 |
| ZNF93 (zinc finger protein 93) | 1 | 0 | 11 | 13.9 | 8.2 |
| LOC344371 | 1 | 0 | 8.3 | 9.6 | 7 |
| SAMD14 (sterile alpha motif domain containing 14) | 1 | 0 | 2.4 | -1.8 | 6.7 |
| LOC440564 | 1 | 1 | 15.3 | 18.6 | 12 |
| ADCY8 (adenylate cyclase 8) | 1 | -1 | 4.3 | -7.3 | 15.9 |
| LOC58489 | 1 | 0 | 6.1 | 6.1 | 6.2 |
| UBL4A (ubiquitin like 4A) | 1 | -1 | -13.5 | 0.9 | -27.9 |
| POMP (proteasome maturation protein) | 1 | 0 | 12.7 | 12.2 | 13.1 |
| SCN1B (sodium voltage-gated channel beta subunit 1) | 1 | -1 | -7.7 | 4.4 | -19.8 |
| ADGRB3 (adhesion G protein-coupled receptor B3) | 1 | 1 | 13.8 | 6.4 | 21.2 |
| DPM3 (dolichyl-phosphate mannosyltransferase subunit 3, regulatory) | 1 | 1 | 12.8 | 6.7 | 18.9 |
| OTUD4 (OTU deubiquitinase 4) | 1 | 1 | 13 | 17.6 | 8.4 |
| SHLD2 (shieldin complex subunit 2) | 1 | 0 | 2.4 | -0.3 | 5 |
| TMPRSS15 (transmembrane serine protease 15) | 1 | 0 | 3.7 | 23.5 | -16 |
| GGCT (gamma-glutamylcyclotransferase) | 1 | 0 | 10.4 | 11 | 9.9 |
| HOXD13 (homeobox D13) | 1 | -1 | -8.3 | 1.2 | -17.7 |
| LOC338586 | 1 | 0 | 6.7 | 6.4 | 7 |
| HHEX (hematopoietically expressed homeobox) | 1 | 0 | 10.3 | 9.1 | 11.6 |
